## Primary screen of a compound library

The values are deposited in ChEMBL (CHEMBL3988442, “University of Dundee, Small-Polar-MMV Screening Library” (2021)).

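Phenotypic screen: M. tuberculosis growth, cholesterol and DPPC medium, 4 days; the read-out is not stated. Compounds at 500 µM. Direction is inferred from retests: higher values go with more growth inhibition. Of about 18,000 compounds tested this way, about 900 (5%) reached 50% or more in at least one test.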

Each number is a percent effect as filed. The controls that fix the scale are not given in the record; negative values are as filed. Compounds were drawn at random from those tested, without regard to their results.

SMILES	Percent Effect
CN(CC(N)=O)C1CCN(CCc2ccccn2)CC1	2.531%
CN(CCN1CCCC1)C(=O)Nc1cccc(C#N)c1	20.83%
COC(=O)CC1CN(CCN2CCCCC2)CCO1 (centres unmarked)	-20.3%
COc1cccc(C2CNCCO2)c1 (centres unmarked)	39.11%
CN(Cc1cc[nH]n1)C(=O)C1COc2ccccc2C1 (centres unmarked)	7.558%
Cc1noc(C(C)N2CCn3c(nc(C)c3C)C2)n1 (centres unmarked)	-20.55%
CC(N)COCC1CC1 (centres unmarked)	-7.437%
CCN1CCC(CCN)CC1	-4.895%
COCC(C)NC(=O)OCC(F)(F)F (centres unmarked)	-8.76%
O=c1[nH]c(=O)c2ccc(Cl)cc2o1	3.928%
COCC(C)NC(=O)c1cc(S(C)(=O)=O)ccc1Cl (centres unmarked)	-11.99%
COCCCNC(=O)NCCC(=O)OC(C)(C)C	2.652%
CC(C)(C)CC(=O)NC1(C)CCS(=O)(=O)C1 (centres unmarked)	0.799%
CN(Cc1nc(C2CCOC2)no1)C1CCNCC1 (centres unmarked)	-3.604%
CCNC(=O)c1ccn(-c2ccccc2)n1	64.13%
Cc1cc(Cl)ccc1NC(=O)CN1CCS(=O)(=O)CC1	-0.04923%
CCN(CC)c1ccc(C(=O)Nc2cc[nH]n2)cn1	99.47%
CCC(NC(=O)c1cccc(C(C)=O)c1)[C@H]1C[C@H](O)C1 (some centres unmarked)	5.006%
CCOC(CC)CNC(=O)c1ccc(CN(C)C)o1 (centres unmarked)	4.808%
CN(C)c1nccc(C2CNCCO2)n1 (centres unmarked)	14.08%
CN(C(=O)Cc1ccncc1)C1CCOC(C)(C)C1 (centres unmarked)	6.184%
CCN(CC)c1nc2nc[nH]c(=O)c2s1	-22.08%
COc1ccc(C2CCCN2CC(=O)NC(N)=O)cc1 (centres unmarked)	-3.096%
O=C1NCCOc2ccc(Br)cc21	-12.24%
CN(C)C1CCCN(C(=O)NCCc2ccco2)C1 (centres unmarked)	4.536%
CNCC(=O)Nc1ccc(Br)cn1	-7.824%
CCOCCN1CCCC(CNS(=O)(=O)C(C)C)C1 (centres unmarked)	1.61%
CCN(C(=O)OC(C)(C)C)[C@H](C)CN	16.22%
CCOc1cc(NCc2ncc(C)o2)ncn1	40.46%
Cn1cc(-c2csc(CCN3CCOC3=O)n2)cn1	7.756%
COc1cccc(OC(C)CN)c1 (centres unmarked)	6.132%
CN(CC1CCOC1)C(=O)c1cc(F)ccc1F (centres unmarked)	3.573%
Cc1nnc(SCC(=O)NCCCc2csc(N)n2)s1	8.758%
NC(=O)CSCC(=O)Nc1ccc(Cl)c(F)c1	24.16%
Cn1c(NC(=O)c2ccccc2I)cc(=O)n(C)c1=O	-6.809%
CN1CCCN(C(=O)COc2ccc(F)cc2Cl)CC1	10.46%
O=C(Cn1ccc(=O)[nH]c1=O)Nc1cccnc1	-5.703%
COCCC1CN(C(=O)c2nc(C)c[nH]2)CCO1 (centres unmarked)	5.606%
NC(=O)CCN1C(=O)CCC1=O	-18.72%
CC(NS(=O)(=O)c1cccc(Br)c1)c1nc[nH]n1 (centres unmarked)	6.183%
Cc1ccc(CNCc2csnn2)c(N2CCCC2)n1	12.1%
O=C(CC1C(=O)Nc2ncnn21)Nc1ccccc1F (centres unmarked)	7.01%
CCNC(=O)CNc1cc(C)c(Cl)cc1OC	40.83%
CNC(=O)CSCc1ccc2ccccc2n1	-35.51%
CN(Cc1cc(C#N)cs1)Cc1nccn1C	22.91%
CCC(CN)CCO (centres unmarked)	-2.533%
Cc1cc(Cl)ccc1OCC(=O)N[C@@H]1CCOC[C@H]1O	15.36%
Cc1noc(C)c1CC(=O)N1CCNCC1	-0.9301%
CCc1nc(C)ccc1OCCCS(C)(=O)=O	-29.2%
C=C(C)CN1C(=O)Nc2ccccc2S1(=O)=O	69.59%
CN(C)c1cc(CNS(=O)(=O)c2cccs2)ccn1	20.17%
Cc1ccnc(NCCNC(=O)c2cc(C)n[nH]2)c1	9.313%
COc1ccc2c(c1)C=C(S(N)(=O)=O)CC2	-0.5601%
CNC(=O)C(C)CN(C)C(=O)Nc1c(C)cccc1Cl (centres unmarked)	6.186%
CC(CN)Cn1cccn1 (centres unmarked)	-1.904%
CN(C)C(=O)CN1CCC(CN)CC1	-15.43%
CCN1CCCN(C(=O)c2c(F)cccc2F)CC1	13.86%
CC(C)(C)NC(=O)CNC(=O)c1cccc2cn[nH]c12	1.05%
Cc1nonc1OCCNC(=O)C1CCCCCN1C (centres unmarked)	23%
CC1(C)CN(C(=O)NC2CCN(C3CC3)CC2)CCO1	4.152%
CC1CCCN(Cn2nccc2-c2cccnc2)C1 (centres unmarked)	8.467%
Cc1cc(NCCO)nc2ccccc12	36.54%
Clc1cccc2nc(N3CCNCC3)oc12	12.67%
CC(Sc1ccccn1)C(=O)NCCn1ccnc1 (centres unmarked)	9.385%
Cc1nc(CC(=O)NC(C)CCn2cccn2)cs1 (centres unmarked)	-4.688%
Cc1cc(NC(=O)c2ccc(F)cc2)[nH]n1	4.683%
c1cn(CC2CCCNC2)nn1 (centres unmarked)	3.333%
Cn1nc2n(c1=O)C(=O)N(c1ccccc1)C2	-5.387%
COCCN(C(=O)c1sccc1OC)c1ccncc1	5.333%
Cc1ccc(C(=O)NCCNC(=O)c2ccco2)cc1	20.68%
c1nnc(C2CCNCC2)o1	8.414%
COCCCN1CCN(C(C)c2nc(C)no2)CC1 (centres unmarked)	-2.677%
NCCCC(=O)Nc1cc(C(F)(F)F)c[nH]c1=O	-6.349%
COc1cccc(F)c1C(C)NC(=O)c1nccn1C (centres unmarked)	69.69%
O=C(NCCc1ccccn1)NCc1ccco1	1.89%
CC(CN1CCOCC1)NC(=O)NC1CC1 (centres unmarked)	-4.176%
CN1N=C(C(=O)NC2CCc3nccn3C2)CCC1=O (centres unmarked)	1.184%
CS(=O)(=O)N(CC(F)(F)F)c1ccncc1	-7.793%
Cc1ccc(NC(=O)CCS(C)(=O)=O)c(CN(C)C)c1	4.409%

Once more, the final 10:

SMILES	Percent Effect
Cc1ccc(C(=O)NCCNC(=O)c2ccco2)cc1	20.68%
c1nnc(C2CCNCC2)o1	8.414%
COCCCN1CCN(C(C)c2nc(C)no2)CC1 (centres unmarked)	-2.677%
NCCCC(=O)Nc1cc(C(F)(F)F)c[nH]c1=O	-6.349%
COc1cccc(F)c1C(C)NC(=O)c1nccn1C (centres unmarked)	69.69%
O=C(NCCc1ccccn1)NCc1ccco1	1.89%
CC(CN1CCOCC1)NC(=O)NC1CC1 (centres unmarked)	-4.176%
CN1N=C(C(=O)NC2CCc3nccn3C2)CCC1=O (centres unmarked)	1.184%
CS(=O)(=O)N(CC(F)(F)F)c1ccncc1	-7.793%
Cc1ccc(NC(=O)CCS(C)(=O)=O)c(CN(C)C)c1	4.409%